Counter-ions that a name gives are not always drawn. Some entries share one result that the patent states for a list of compounds.
Test: Stability test in disintegration test solution 1 (pH1.2) and disintegration test solution 2 (pH6.8)
Assay type: physicochemical
Conditions: after 1 hour; disintegration test solution 1 (pH1.2) and 2 (pH6.8); 10 μM

Structure (SMILES) | Residual rate [%]
N=C(N)Nc1ccc2c(c1)CCCOc1c(cccc1C(=O)N(CCOCCOCCOCCN(C(=O)c1cccc3c1OCCCc1cc(NC(=N)N)ccc1C(=O)O3)[C@@H](CC(=O)O)C(=O)O)[C@@H](CC(=O)O)C(=O)O)OC2=O [27-(b), (2S,165)-3,15-bis(10-guanidino-13-oxo-6,7,8,13-tetrahydrodibenzo[b,f][1,4]dioxecin-4-carbonyl)-6,9,12-trioxa-3,15-diazaheptadecane-1,2,16,17-tetracarboxylic acid] | ≥ 95
CN(Cc1ccc(OC(=O)c2ccc(NC(=N)N)cc2)cc1)S(=O)(=O)N(CCOCCOCCN([C@@H](CC(=O)O)C(=O)O)S(=O)(=O)N(C)Cc1ccc(OC(=O)c2ccc(NC(=N)N)cc2)cc1)[C@@H](CC(=O)O)C(=O)O [22-(a), (2S,13S)-3,12-bis(N-(4-((4-guanidinobenzoyl)oxy)benzyl)-N-methylsulfamoyl)-6,9-dioxa-3,12-diazatetradecane-1,2,13,14-tetracarboxylic acid trifluoroacetate] | ≥ 95

— US11465965B2, “Double-headed protease inhibitor” (UBE INDUSTRIES, LTD., priority 2017, dated 2022)
